Data from article PMC6770789.
Results are given in words; binding and its absence hold for the method and conditions named. Binding seen in cells or lysates may run through a third protein. Some entries that bind do so weakly or less than the wild type.

By UniProt entry, the sequences of proteins in these tests, tags left out. Where a name states a change or a piece, a line headed by the entry shows the natural chain unless it says otherwise.
UniProt Q15672: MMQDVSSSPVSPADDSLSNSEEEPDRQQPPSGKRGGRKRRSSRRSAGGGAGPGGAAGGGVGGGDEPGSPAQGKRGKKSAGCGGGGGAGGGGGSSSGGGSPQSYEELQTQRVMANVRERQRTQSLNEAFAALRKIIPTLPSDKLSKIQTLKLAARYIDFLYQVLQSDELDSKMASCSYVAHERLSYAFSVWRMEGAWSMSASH
UniProt P15923: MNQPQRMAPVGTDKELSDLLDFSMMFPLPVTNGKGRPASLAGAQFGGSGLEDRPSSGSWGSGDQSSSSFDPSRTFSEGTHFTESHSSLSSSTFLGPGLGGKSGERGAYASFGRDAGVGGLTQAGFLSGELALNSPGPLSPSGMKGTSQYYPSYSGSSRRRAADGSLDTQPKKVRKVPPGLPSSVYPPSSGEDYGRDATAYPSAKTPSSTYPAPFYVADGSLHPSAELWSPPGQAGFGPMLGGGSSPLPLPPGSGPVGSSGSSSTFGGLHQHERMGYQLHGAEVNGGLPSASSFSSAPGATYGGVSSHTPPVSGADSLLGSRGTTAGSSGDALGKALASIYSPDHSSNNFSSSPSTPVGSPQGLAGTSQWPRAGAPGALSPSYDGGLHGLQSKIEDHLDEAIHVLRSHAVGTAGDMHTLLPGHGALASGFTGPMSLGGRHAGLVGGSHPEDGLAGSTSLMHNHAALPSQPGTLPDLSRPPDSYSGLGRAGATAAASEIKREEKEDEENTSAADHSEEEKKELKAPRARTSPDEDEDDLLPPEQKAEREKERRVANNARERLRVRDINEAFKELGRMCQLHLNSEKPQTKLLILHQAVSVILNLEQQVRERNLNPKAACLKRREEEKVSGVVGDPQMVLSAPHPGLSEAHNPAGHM

Tests used:
[1] = target: TW-NTAP (TWIST1 fused to the NTAP tag) (UniProt Q15672); assay: co-IP; affinity purification (AP) of NTAP-tagged TW from nuclear extracts of T98G cells on agarose beads conjugated with rabbit immunoglobulin, overnight; co-purified endogenous proteins detected by Western blot
[2] = target: TWIST1 phosphorylated at serine 68, endogenous (human (endogenous in T98G)) (UniProt Q15672); assay: co-IP; endogenous proteins of T98G cells; reciprocal IP with mouse E12 and TW antibodies, blot with rabbit antibodies; also IP with pTW S68 antibody, blot with mouse E12 antibody; same-isotype non-specific IgG as control; 150 mM NaCl
[3] = target: TWIST1 (TW), endogenous (human (endogenous in T98G)) (UniProt Q15672); assay: as above
[4] = target: TWIST1 wild type, overexpressed from pLXSN (UniProt Q15672); assay: co-IP; nuclear extracts (diluted to 150 mM NaCl) of T98G cells stably transduced with E12 (pLXSH) and TW or TW(S68A) (pLXSN); IP with TW antibody, blot for E12; non-specific IgG control
[5] = target: TW(S68A)-NTAP (TWIST1 S68A fused to the NTAP tag) (UniProt Q15672); assay: co-IP; affinity purification of TW(S68A)-NTAP on rabbit immunoglobulin agarose from cytoplasmic and nuclear fractions of cells co-transduced with TW(S68A)-NTAP and TW(S68A)-HA; blot with HA antibody

With “E12 bHLH transcription factor, endogenous (from UniProt P15923 1-654)” the binding [1] was “binds”, the binding [2] was “binds” and the binding [3] was “binds”.

For “E12 monomer, overexpressed from pLXSH (from UniProt P15923 1-654)”, the binding [4] was “binds”.

“TW(S68A)-HA (HA tagged TWIST1 S68A) (from UniProt Q15672 1-202)” was tested, and the binding [5] was “binds”.
